Data taken from ChEMBL document CHEMBL3988442, “University of Dundee, Small-Polar-MMV Screening Library” (2021).

Protein sequences, listed by entry. Tags and fused reporters are not part of them. Residues count along the entry.
UniProt P9WNZ1, whole entry: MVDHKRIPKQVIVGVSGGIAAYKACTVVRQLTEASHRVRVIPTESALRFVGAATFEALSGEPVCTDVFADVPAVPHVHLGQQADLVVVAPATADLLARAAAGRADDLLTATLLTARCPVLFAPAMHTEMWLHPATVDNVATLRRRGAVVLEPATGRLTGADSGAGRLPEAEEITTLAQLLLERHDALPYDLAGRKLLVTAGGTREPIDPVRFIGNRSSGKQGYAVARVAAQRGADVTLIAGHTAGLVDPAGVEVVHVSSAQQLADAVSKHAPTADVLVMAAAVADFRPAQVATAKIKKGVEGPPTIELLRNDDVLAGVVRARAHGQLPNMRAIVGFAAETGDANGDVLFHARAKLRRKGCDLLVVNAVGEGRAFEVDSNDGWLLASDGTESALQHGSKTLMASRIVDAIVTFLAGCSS
UniProt I6X8D2, whole entry: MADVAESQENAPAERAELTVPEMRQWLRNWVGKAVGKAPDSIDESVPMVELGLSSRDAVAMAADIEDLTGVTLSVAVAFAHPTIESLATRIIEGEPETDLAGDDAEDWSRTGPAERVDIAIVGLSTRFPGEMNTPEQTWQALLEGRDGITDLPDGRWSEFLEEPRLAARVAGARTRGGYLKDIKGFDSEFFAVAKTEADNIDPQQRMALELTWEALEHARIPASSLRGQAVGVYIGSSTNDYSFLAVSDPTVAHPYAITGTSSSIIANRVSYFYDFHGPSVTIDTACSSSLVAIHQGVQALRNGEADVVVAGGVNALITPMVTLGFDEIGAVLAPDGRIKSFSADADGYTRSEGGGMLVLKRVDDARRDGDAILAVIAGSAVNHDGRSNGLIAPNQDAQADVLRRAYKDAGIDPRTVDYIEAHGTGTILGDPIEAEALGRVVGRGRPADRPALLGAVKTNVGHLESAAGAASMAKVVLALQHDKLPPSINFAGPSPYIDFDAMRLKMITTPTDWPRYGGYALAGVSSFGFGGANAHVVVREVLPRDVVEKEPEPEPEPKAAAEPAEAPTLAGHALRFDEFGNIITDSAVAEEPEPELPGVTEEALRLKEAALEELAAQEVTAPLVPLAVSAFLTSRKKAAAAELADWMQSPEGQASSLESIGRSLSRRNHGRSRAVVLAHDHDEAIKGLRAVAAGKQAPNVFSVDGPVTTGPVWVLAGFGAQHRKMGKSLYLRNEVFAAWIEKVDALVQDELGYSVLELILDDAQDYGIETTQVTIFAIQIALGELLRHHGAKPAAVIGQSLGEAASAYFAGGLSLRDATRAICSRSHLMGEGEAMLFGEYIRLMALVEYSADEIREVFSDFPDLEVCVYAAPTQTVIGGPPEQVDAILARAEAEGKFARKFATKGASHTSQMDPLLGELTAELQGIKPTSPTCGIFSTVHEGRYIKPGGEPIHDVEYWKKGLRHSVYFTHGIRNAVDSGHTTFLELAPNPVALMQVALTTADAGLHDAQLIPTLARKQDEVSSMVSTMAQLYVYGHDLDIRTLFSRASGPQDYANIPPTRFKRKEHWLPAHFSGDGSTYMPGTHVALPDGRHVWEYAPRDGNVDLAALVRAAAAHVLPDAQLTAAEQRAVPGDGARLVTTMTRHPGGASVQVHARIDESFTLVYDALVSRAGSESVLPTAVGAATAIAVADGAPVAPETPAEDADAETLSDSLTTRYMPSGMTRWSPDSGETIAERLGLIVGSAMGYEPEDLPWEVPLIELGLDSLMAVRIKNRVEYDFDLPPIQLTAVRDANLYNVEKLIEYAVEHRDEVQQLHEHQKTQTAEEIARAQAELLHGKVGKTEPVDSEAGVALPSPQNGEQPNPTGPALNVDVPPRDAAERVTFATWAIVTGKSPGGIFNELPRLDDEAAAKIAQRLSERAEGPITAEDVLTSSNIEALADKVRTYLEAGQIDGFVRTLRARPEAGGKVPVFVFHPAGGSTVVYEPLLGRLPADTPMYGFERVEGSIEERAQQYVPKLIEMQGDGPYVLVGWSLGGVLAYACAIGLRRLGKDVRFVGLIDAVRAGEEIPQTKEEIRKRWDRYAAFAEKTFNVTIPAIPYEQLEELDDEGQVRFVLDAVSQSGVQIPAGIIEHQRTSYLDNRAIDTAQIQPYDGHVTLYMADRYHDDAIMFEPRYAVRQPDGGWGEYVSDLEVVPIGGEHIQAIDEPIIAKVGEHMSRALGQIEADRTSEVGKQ
UniProt P9WPC5, whole entry: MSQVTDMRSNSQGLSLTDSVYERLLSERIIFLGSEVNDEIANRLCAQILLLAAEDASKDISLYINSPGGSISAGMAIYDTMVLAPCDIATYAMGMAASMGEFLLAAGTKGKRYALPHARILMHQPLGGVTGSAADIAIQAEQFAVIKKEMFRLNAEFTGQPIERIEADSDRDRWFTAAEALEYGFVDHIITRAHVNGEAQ
UniProt P9WPC3, whole entry partner: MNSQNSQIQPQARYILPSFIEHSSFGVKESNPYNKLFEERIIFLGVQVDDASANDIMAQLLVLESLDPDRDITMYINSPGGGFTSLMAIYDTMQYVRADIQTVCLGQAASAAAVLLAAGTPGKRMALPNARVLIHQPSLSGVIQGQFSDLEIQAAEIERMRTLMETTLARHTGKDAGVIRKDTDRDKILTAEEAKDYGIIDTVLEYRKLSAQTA
UniProt A4I591, 1-473: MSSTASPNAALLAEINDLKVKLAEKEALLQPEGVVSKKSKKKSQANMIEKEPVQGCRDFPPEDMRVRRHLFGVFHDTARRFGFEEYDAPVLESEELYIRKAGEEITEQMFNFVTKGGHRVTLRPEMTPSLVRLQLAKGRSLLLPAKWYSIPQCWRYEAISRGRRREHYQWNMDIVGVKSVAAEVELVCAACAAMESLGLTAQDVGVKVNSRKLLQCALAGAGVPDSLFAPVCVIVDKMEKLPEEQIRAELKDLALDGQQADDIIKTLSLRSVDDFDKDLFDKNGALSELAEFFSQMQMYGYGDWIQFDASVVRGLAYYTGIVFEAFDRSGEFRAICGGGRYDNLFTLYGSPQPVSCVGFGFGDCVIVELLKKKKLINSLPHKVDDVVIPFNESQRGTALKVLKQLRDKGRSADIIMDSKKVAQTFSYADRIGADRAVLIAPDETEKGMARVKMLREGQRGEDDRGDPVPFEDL
UniProt P9WFT3, whole entry: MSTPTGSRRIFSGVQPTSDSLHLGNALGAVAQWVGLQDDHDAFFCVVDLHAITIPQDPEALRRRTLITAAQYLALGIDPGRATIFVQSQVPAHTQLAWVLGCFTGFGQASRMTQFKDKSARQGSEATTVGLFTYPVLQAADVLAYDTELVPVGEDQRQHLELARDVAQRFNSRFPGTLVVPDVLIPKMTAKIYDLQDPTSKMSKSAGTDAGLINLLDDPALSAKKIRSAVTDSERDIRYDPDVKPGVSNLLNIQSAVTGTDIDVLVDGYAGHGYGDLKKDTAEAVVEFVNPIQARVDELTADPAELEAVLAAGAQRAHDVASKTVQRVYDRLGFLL

CoaBC: 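Enzyme assay of CoaBC with a phosphate dye (Biomol Green) read at 650 nm. Target: Coenzyme A biosynthesis protein CoaBC, Mycobacterium tuberculosis (UniProt P9WNZ1). Tested at 30 µM. Higher reads as stronger inhibition, judged from the few compounds that gave an IC50. Most strong results did not repeat in a second test. Size under these conditions: about 67,000 compounds, about 40 of them at 50% or above in at least one test.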
Pks13 thioesterase: 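Polyketide synthase Pks13, Mycobacterium tuberculosis (UniProt I6X8D2). Enzyme assay of the thioesterase domain of polyketide synthase 13; the read-out is not stated. Concentration: 30 µM. The record gives no direction; the compounds picked for IC50 retests had high values, so higher reads as stronger inhibition. Of about 67,000 compounds tested this way, about 300 (0.46%) reached 50% or more in at least one test.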
ClpP1P2: 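Protease assay of ClpP1P2, read by the AMC dye that it sets free. Target: ClpP1P2, Mycobacterium tuberculosis (UniProt P9WPC5 and UniProt P9WPC3). Tested at 50 µM. Higher reads as stronger inhibition, judged from the few compounds that gave an IC50. Most other retested compounds had strongly negative values. Size under these conditions: about 69,000 compounds, about 10 of them at 50% or above in at least one test.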
LiHisRS: 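Enzyme assay of histidyl-tRNA synthetase; the read-out is not stated. Target: Histidine-tRNA ligase, Leishmania infantum (UniProt A4I591). Tested at 30 µM. Higher reads as stronger inhibition (inferred: compounds with an IC50 in retests scored well above the rest). The assay is labelled LdHisRS but filed under L. infantum. About 69,000 compounds were tested under these conditions; 0.6% (about 410) showed 50% or more at least once.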
MtTrpRS: 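Enzyme assay of tryptophanyl-tRNA synthetase; the read-out is not stated. Target: Tryptophan-tRNA ligase, Mycobacterium tuberculosis (UniProt P9WFT3). Tested at 10 µM. Direction is not recorded; retested compounds ran higher, which suggests that high means inhibition. About 65,000 compounds were tested under these conditions; 0.098% (about 64) showed 50% or more at least once.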

The filed quantity is “Percent Effect” (%). How 0% and 100% were set is not recorded. Most values in the screen are low, and negative values occur. Compounds were drawn at random from those tested, without regard to their results.

CN(C)CC1CN(c2cnc3ccccc3n2)CCO1 (stereo not drawn) gave CoaBC: 2.057%; Pks13 thioesterase: -20.93%; ClpP1P2: -85.49%; LiHisRS: 19.1%; MtTrpRS: 0.3934%.
Cc1cccc(CN2C[C@@H]3CN(C(=O)c4cnccn4)C[C@@H]3C2=O)n1 gave CoaBC: -0.3861%; Pks13 thioesterase: -9.466%; ClpP1P2: 5.734%; LiHisRS: -1.923%; MtTrpRS: -9.012%.
N[C@H]1CC[C@@H](CN2CCCn3nc(CNC(=O)C4CCC4)cc3C2)CC1 gave CoaBC: 2.774%; Pks13 thioesterase: -10.89%; ClpP1P2: -7.288%; LiHisRS: 15.2%; MtTrpRS: 0.5073%.
O=C(CC1NC(N2CCc3ccccc32)=NC1=O)Nc1ccccc1 (stereo not drawn) gave CoaBC: -2.992%; Pks13 thioesterase: -20.59%; ClpP1P2: -12.51%; LiHisRS: 14.58%; MtTrpRS: -5.432%.
CN1CCC(c2nnc3n2CCN(S(=O)(=O)c2ccccc2Cl)C3)CC1 gave CoaBC: 1.196%; Pks13 thioesterase: 2.671%; ClpP1P2: -14.51%; LiHisRS: 17.27%; MtTrpRS: -3.255%.
O=C(NCCn1ccnc1)C1(c2ccc3c(c2)OCCO3)CCCC1 gave CoaBC: 2.554%; Pks13 thioesterase: -10.31%; ClpP1P2: 7.968%; LiHisRS: 9.649%; MtTrpRS: 1.556%.
Cc1ccc(C(N)=O)c(N2C[C@H]3OC(=O)N(C4CCCC4)[C@H]3C2)n1 gave CoaBC: 4.463%; Pks13 thioesterase: -4.551%; ClpP1P2: 0.9176%; LiHisRS: 14.29%; MtTrpRS: -0.000007%.
CCn1ccc2ccnc(CC3CN(C(=O)c4ccc(F)cc4)C3)c21 gave CoaBC: 1.399%; Pks13 thioesterase: 1.81%; ClpP1P2: -15.94%; LiHisRS: 15.6%; MtTrpRS: -3.825%.
CNC(=O)[C@@H]1C[C@@H](N)CN1C(=O)CCSCc1ccccc1 gave CoaBC: 1.279%; Pks13 thioesterase: -21.79%; ClpP1P2: -8.726%; LiHisRS: 14.75%; MtTrpRS: 0.9449%.
Cn1cc(-c2nc(C3CCN(S(C)(=O)=O)CC3)cc3c2ncn3C)cn1 gave Pks13 thioesterase: 20%; ClpP1P2: -0.905%; LiHisRS: -5.128%; MtTrpRS: 4.748%.
O=C(NCCCN1CCOCC1)Nc1cnc2cc(Cl)ccc2c1O gave CoaBC: -4.167%; Pks13 thioesterase: -48.71%; ClpP1P2: 13.03%; LiHisRS: 8.333%; MtTrpRS: -0.2508%.
O=C1[C@H]2CN(S(=O)(=O)C3CC3)C[C@H]2CN1Cc1cccnc1 gave CoaBC: 2.503%; Pks13 thioesterase: -15.46%; ClpP1P2: -11.06%; LiHisRS: 2.74%; MtTrpRS: -4.241%.
Cc1cc(C)n(C2CCCN(C(=O)c3c(C)c(C)n[nH]c3=O)C2)n1 (stereo not drawn) gave CoaBC: 7.432%; Pks13 thioesterase: -7.529%; ClpP1P2: 0.7589%; LiHisRS: 12.16%; MtTrpRS: -5.152%.
c1cncc(OC[C@@]23CCO[C@@H]2CCN(Cc2cccs2)C3)c1 gave CoaBC: 9.091%; Pks13 thioesterase: 12.45%; ClpP1P2: -10.52%; LiHisRS: 24.69%; MtTrpRS: 6.427%.
CC(C)N1CCC(CC(=O)NC(C(=O)O)c2ccc(F)cc2)CC1 (stereo not drawn) gave CoaBC: 5.556%; Pks13 thioesterase: 5.902%; ClpP1P2: -2.176%; LiHisRS: 25%; MtTrpRS: -4.131%.
Cc1nsc(C(=O)NCCc2ccccc2)n1 gave CoaBC: 2.584%; Pks13 thioesterase: -16.21%; ClpP1P2: -8.234%; LiHisRS: 4%; MtTrpRS: 0.08937%.
O=C(Cc1ccc2c(c1)CCO2)N1CCCC1Cn1cccn1 (stereo not drawn) gave CoaBC: 10.5%; Pks13 thioesterase: -11.96%; ClpP1P2: 3.618%; LiHisRS: 11.7%; MtTrpRS: 3.121%.
Cn1nc(C(=O)N2CCC(Oc3ccc(C#N)cn3)CC2)ccc1=O gave CoaBC: -1.124%; Pks13 thioesterase: -2.713%; ClpP1P2: -7.331%; LiHisRS: 6.612%; MtTrpRS: 1.876%.

The first 2 entries again:

| Compound | CoaBC | Pks13 thioesterase | ClpP1P2 | LiHisRS | MtTrpRS |
|---|---|---|---|---|---|
| `CN(C)CC1CN(c2cnc3ccccc3n2)CCO1` (stereo not drawn) | 2.057% | -20.93% | -85.49% | 19.1% | 0.3934% |
| `Cc1cccc(CN2C[C@@H]3CN(C(=O)c4cnccn4)C[C@@H]3C2=O)n1` | -0.3861% | -9.466% | 5.734% | -1.923% | -9.012% |